Test results published in doi:10.1101/2023.06.20.545791 (bioRxiv, 2023).
These are yes or no findings as the source states them, for the method shown.

The chains behind the UniProt entries cited, without tags or fusion partners. Where a name states a change or a piece, a line headed by the entry shows the natural chain unless it says otherwise. Residues count along the entry.
UniProt P01556, residues 22-124: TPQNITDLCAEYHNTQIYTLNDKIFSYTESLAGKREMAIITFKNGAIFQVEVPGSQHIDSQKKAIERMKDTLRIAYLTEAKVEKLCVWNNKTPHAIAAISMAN
UniProt P01555: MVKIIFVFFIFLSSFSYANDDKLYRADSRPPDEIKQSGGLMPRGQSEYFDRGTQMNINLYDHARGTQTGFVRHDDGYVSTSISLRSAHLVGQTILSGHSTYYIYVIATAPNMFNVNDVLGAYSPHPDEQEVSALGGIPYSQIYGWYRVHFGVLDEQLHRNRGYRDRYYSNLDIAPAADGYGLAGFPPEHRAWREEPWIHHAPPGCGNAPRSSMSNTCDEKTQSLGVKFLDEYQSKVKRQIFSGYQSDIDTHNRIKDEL
UniProt O75460, residues 24-443: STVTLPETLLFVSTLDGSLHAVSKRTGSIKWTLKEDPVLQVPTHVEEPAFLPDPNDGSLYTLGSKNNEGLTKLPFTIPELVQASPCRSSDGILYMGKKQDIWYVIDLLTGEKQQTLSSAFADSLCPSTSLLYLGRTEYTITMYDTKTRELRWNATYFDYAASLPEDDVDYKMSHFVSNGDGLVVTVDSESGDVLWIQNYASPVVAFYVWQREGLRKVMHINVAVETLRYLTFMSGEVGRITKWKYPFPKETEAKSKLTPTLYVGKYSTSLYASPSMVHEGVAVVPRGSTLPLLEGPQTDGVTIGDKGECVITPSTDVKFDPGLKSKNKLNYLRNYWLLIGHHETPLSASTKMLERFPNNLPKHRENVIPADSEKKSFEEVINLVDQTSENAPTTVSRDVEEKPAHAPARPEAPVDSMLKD

What was measured:
[1] = target: CTxB labeled with Alexa Fluor 647 (UniProt P01556); assay: fluorescence polarisation
[2] = target: CTxA1_(P13-Y30) control peptide (UniProt P01555); assay: fluorescence polarisation

Substance | binding [1] | binding [2]
GST-IRE1αLD (S24-D443) (from UniProt O75460 24-443) (domain or fragment) | no binding | –
IRE1α lumenal domain (IRE1αLD) (from UniProt O75460 24-443) (domain or fragment) | – | no binding
